Data: PubChem BioAssay AID504444 (National Center for Advancing Translational Sciences (NCATS), 2011)
Hit rate of the full screen: of about 360,000 compounds, about 7,500 (2.1%) were called active. Inconclusive means that the source gave no clear call. Such entries were picked first, then a sample of the others. Calls follow the shape of the dose curve; as a rule, active = well fitted inhibition curve with a large enough effect; inconclusive = small, poorly fitted or top-dose-only effect, or effect the other way; inactive = flat fitted curve, though single readings scatter. A potency beside an inconclusive call is a rough fit, not a confirmed value.

Assay: Nrf2 qHTS screen for inhibitors; also: nearly all actives have a fitted effect of over 60% in size
Details: A549 ARE-Fluc reporter, luciferase luminescence, 18-24 h; activity change, negative = inhibition: at 46 µM (top of the series)
Summary of the method: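 Concentration-response testing used A549 ARE_Fluc cells at 5000 cells/well. Following an 18-24 h compound incubation, viability was read by fluorescence (Ex 405/Em 525) and luciferase output by luminescence.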
% is scaled to controls: 0 for no effect and ±100 for the full control effect; potency is read from the fitted curve at half-maximal effect.

Row | SMILES | Potency | activity change, negative = inhibition
1 | Cc1nn(C)c(C)c1CNC(=O)Nc1ccc2c(c1)OCO2 | inconclusive: 23.1 µM [activator, single point] | 
2 | Cc1ccc(SCCC(=O)N2CCC(C)CC2)cc1 | inconclusive: 2.91 µM [activator, full curve, poor fit] | 
3 | Cc1cccc(N=Nc2ccc(O)c3ncccc23)c1 | inconclusive: 29.1 µM [falling, single point] | 
4 | C=CCNC(=O)C1CCCN(S(C)(=O)=O)C1 (stereo not drawn) | inconclusive: 0.0052 µM [falling, full curve] | 
5 | CCNC(=S)Nc1ccc(Oc2ccccc2)cc1 | inactive | 
6 | O=C(NCC1CCCO1)c1cc([N+](=O)[O-])ccc1N1CCC(Cc2ccccc2)CC1 (stereo not drawn) | inconclusive: 10.3 µM [falling, partial curve, poor fit] | 
7 | Cc1ccccc1C(=O)NC(NCc1ccco1)C(Cl)(Cl)Cl (stereo not drawn) | inconclusive: 1.3 µM [falling, partial curve] | 
8 | Cc1cc(OCc2nc(N)nc(N)c2-c2ccc(Cl)c(Cl)c2)ccc1[N+](=O)[O-] | active: 8.2 µM | 
9 | Cc1nc2nc(-c3ccc(Cl)cc3)cn2nc1C | inconclusive: 1.03 µM [activator, full curve] | 
10 | CCCn1nnc(NC(=O)/C=C/c2ccco2)n1 | inconclusive: 16.4 µM [activator, partial curve] | 
11 | Clc1ccccc1-c1ncc2ccccn12 | inconclusive: 2.06 µM [falling, partial curve, poor fit] | 
12 | Cc1c2cnn(CC(=O)Nc3cccc(C(F)(F)F)c3)c(=O)c2c(C)n1Cc1ccccc1Cl | inactive | 
13 | COc1ccccc1/C=C/c1nc(C#N)c(N(C)C)o1 | inconclusive: 11.6 µM [activator, partial curve] | 
14 | CCc1noc(C)c1C(=O)Nc1ccc(Cl)c(S(=O)(=O)N2CCCCC2)c1 | inconclusive: 29.1 µM [falling, single point] | 
15 | COc1cc(C(=O)Nc2ccc3nc(SCc4ccccc4)sc3c2)cc(OC)c1OC | inconclusive: 14.6 µM [falling, partial curve, poor fit] | 
16 | O=C(CCl)N(c1ccccc1)c1c[nH]c2ccccc12 | inactive | 
17 | Clc1ccc(CNc2ccc(N3CCN(Cc4ccccc4)CC3)cc2)cc1 | inconclusive: 23.1 µM [falling, single point] | 
18 | CCCNC(=O)c1ccc(N2CCC3(CC2)CC(c2ccccc2)=NO3)c([N+](=O)[O-])c1 | inconclusive: 29.1 µM [falling, single point] | 
19 | CCC(Sc1nncn2c1cc1occc12)C(=O)Nc1ccc(C)c(Cl)c1 (stereo not drawn) | inconclusive: 16.4 µM [falling, single point] | 
20 | O=C(c1c(F)cccc1F)N1CCCC(c2nc(-c3ccc(F)cc3)no2)C1 (stereo not drawn) | inconclusive: 18.4 µM [falling, single point] | 
21 | Cc1c2cnn(CC(=O)NC(C)C)c(=O)c2c(C)n1Cc1ccccc1Cl | inconclusive: 20.6 µM [activator, single point] | 
22 | Cc1cc(=O)n2nc(-c3ccccc3)sc2c1C#N | inactive | 
23 | CCCCn1c(SCC(=O)N2CCCC2)nnc1-c1ccccc1 | inactive | 

Row | SMILES | Potency | activity change, negative = inhibition
24 | Cc1c(NC(=O)/C(C#N)=C/c2ccc(-c3cc(Cl)ccc3Cl)o2)c(=O)n(-c2ccccc2)n1C | inconclusive: 9.2 µM [falling, partial curve, poor fit] | 
25 | CCC(=O)Nc1ccc(/C(C)=N/NC(=O)c2c(Br)c(C)nn2C)cc1 | inactive | 
26 | COc1ccc(C(=O)Nc2ccc(NC(=O)c3ccco3)c(Cl)c2)cc1OC | inconclusive: 0.517 µM [falling, partial curve, poor fit] | 
27 | COc1ccc(C(C)C)cc1S(=O)(=O)NCCc1c(C)[nH]c2ccc(C)cc12 | inconclusive: 29.1 µM [falling, single point] | 
28 | O=C(/C=C/c1ccc(Cl)cc1)Nc1cc(S(=O)(=O)N2CCOCC2)ccc1N1CCOCC1 | inconclusive: 4.61 µM [falling, partial curve, poor fit] | 
29 | CCN1CCN(CC(=O)Nc2cc(C)on2)CC1 | inactive | 
30 | CCOc1ccc2nc(NC(=O)C3(C)CC3(Br)Br)sc2c1 (stereo not drawn) | inconclusive: 2.31 µM [activator, full curve] | 
31 | O=C1N[C@@H](c2ccccc2)COC(=O)[C@@H](Cc2ccc(F)cc2)CC/C=C/C[C@@H]1CC(=O)N(CCO)Cc1ccccc1 | inconclusive: 29.1 µM [falling, single point] | 
32 | CC(=O)CSc1nc(N)c(C#N)c(-c2cccs2)c1C#N | inconclusive: 29.1 µM [falling, single point] | 
33 | Cc1ccccc1Cn1ccc(NC(=O)c2cnn3c2NC(c2ccccc2)CC3C(F)(F)F)n1 (stereo not drawn) | inconclusive: 18.4 µM [falling, single point] | 
34 | O=S(=O)(Cc1cc(-c2ccccc2)no1)c1ccccc1 | inconclusive: 0.82 µM [activator, full curve, poor fit] | 
35 | CC(NC(=O)CCCn1c(=O)c2cccn2c2cccnc21)c1ccccc1 (stereo not drawn) | inconclusive: 13 µM [falling, partial curve, poor fit] | 
36 | Cc1c(C(=O)Nc2cnccn2)oc2ccccc12 | inconclusive: 10.3 µM [activator, partial curve, poor fit] | 
37 | COc1ccc(/C=C2/C(=O)N(c3cccc(F)c3)N=C2C)c(OC)c1 | inactive | 
38 | COC(=O)c1ccc(N=NN2CCCCCC2)cc1 | inconclusive: 23.1 µM [activator, partial curve] | 
39 | COc1ccc(N2CCN(C(=O)c3nc(SC)ncc3Cl)CC2)cc1 | inactive | 
40 | CC1Cc2ccccc2N1C(=O)Cn1nnc(-c2ccccc2NC(=O)C2CCC2)n1 (stereo not drawn) | inconclusive: 18.4 µM [falling, single point] | 
41 | Nc1nc(NCCCN2CCOCC2)nc(Nc2cccc(F)c2)c1[N+](=O)[O-] | inconclusive: 29.1 µM [falling, single point] | 
42 | Nc1ncc(Br)cc1S(=O)(=O)NCCC(=O)Nc1cccc(Cl)c1 | inconclusive: 29.1 µM [falling, single point] | 
43 | CN(Cc1ccc(OC(F)F)cc1)C(=O)c1cccc(S(=O)(=O)N2CCN(Cc3ccccc3)CC2)c1 | active: 6.51 µM | 
44 | CCc1ccc2nc(N(CCCN(C)C)C(=O)c3ccc(C(=O)c4ccccc4)cc3)sc2c1 | active: 13 µM | 
45 | COC(=O)c1cc2c(ccn2-c2ccc(F)cc2)n1CC(=O)C(C)(C)C | inactive | 
46 | CC1CCN(C(=O)C2CCC(=O)N(Cc3ccc(Cl)cc3)C2)CC1 (stereo not drawn) | inconclusive: 6.51 µM [activator, single point] | 

In another format: entries from further up
Cc1ccccc1Cn1ccc(NC(=O)c2cnn3c2NC(c2ccccc2)CC3C(F)(F)F)n1 (stereo not drawn)
  Potency: inconclusive: 18.4 µM [falling, single point]
O=S(=O)(Cc1cc(-c2ccccc2)no1)c1ccccc1
  Potency: inconclusive: 0.82 µM [activator, full curve, poor fit]

More compounds follow:

Row | SMILES | Potency | activity change, negative = inhibition
47 | CCOc1ccccc1-c1c2cc(O)c(=O)cc-2oc2cc(O)c(O)cc12 | inconclusive: 8.2 µM [falling, partial curve] | 
48 | O=C(Nc1cccn2ncnc12)c1cccc(C(F)(F)F)c1 | inconclusive: 29.1 µM [activator, single point] | 
49 | O=C(NCc1ccc2c(c1)OCO2)C(=O)NCC1OCCN1S(=O)(=O)c1ccc(Br)cc1 (stereo not drawn) | inconclusive: 18.4 µM [falling, single point] | 
50 | COc1ccc(CCN2C(=O)CSC2=Nc2ccc(C)cc2C)cc1OC | inconclusive: 29.1 µM [falling, single point] | 
51 | O=C(CS(=O)(=O)Cc1ccccc1)Nc1nnc(C2CCCCC2)s1 | inconclusive: 23.1 µM [falling, single point] | 
52 | COc1cc2c(-c3ccccc3)c(C)oc2cc1/C=N/NC(N)=S | inactive | 
53 | COc1cc2ncnc(NCc3ccc4c(c3)OCO4)c2cc1OC | inconclusive: 6.51 µM [falling, partial curve, poor fit] | 
54 | CC1=Nc2cc(C(=O)O)ccc2Sc2ccc(Br)cc21 | inactive | 
55 | Cc1ccc(-c2noc(-c3nnn(CC(=O)Nc4cc(C)cc(C)c4)c3N)n2)cc1 | inconclusive: 2.06 µM [activator, full curve] | 
56 | COC(=O)c1ccc(CSc2nnc(Nc3cccc(OC)c3)s2)o1 | inconclusive: 0.731 µM [activator, full curve, poor fit] | 
57 | CCCNC(=O)CSc1nc2nc(C)c(Cc3ccccc3Cl)c(C)n2n1 |  | inactive: -9.92% [at 9.27 µM]
58 | Cc1nnc(NC(=O)c2oc3c(ccc4ccccc43)c2C)s1 | inactive | 
59 | CCN(CC)S(=O)(=O)c1cc(-c2onc(C)c2C)ccc1OC | inconclusive: 29.1 µM [falling, single point] | 
60 | COc1cc2[nH]c3c(OC)ncnc3c2cc1OC | inactive | 
61 | CC(C)Cc1csc(NC(=O)c2ccc(F)cc2)c1C(=O)O | inconclusive: 29.1 µM [falling, single point] | 
62 | Cc1csc(NC(=O)CSc2ccc(-c3ccccn3)nn2)n1 | inconclusive: 20.6 µM [falling, single point] | 
63 | O=C(NC(Cc1ccccc1)C(=O)O)/C(=C/c1ccc(Cl)cc1)NC(=O)c1ccco1 (stereo not drawn) | inconclusive: 3.26 µM [activator, single point] | 
64 | CC1CN=C2C(C(=O)Nc3ccccc3)=C(O)CC(c3ccccc3)N21 (stereo not drawn) | inconclusive: 16.4 µM [falling, single point] | 
65 | CCOc1ccc(Br)cc1C1=NN(C(C)=O)C(c2ccc([N+](=O)[O-])s2)O1 (stereo not drawn) | inactive | 
66 | c1ccc2c3c([nH]c2c1)-c1[nH]ncc1CC3 | inactive | 
67 | CCN(CCCNC(=O)c1cc2c(=O)n(CC)c3ccccc3c2s1)c1ccccc1 | inconclusive: 3.26 µM [falling, partial curve, poor fit] | 
68 | CC(NC(=O)CCSCc1ccccc1F)c1ccccc1 (stereo not drawn) | inconclusive: 8.2 µM [activator, partial curve] | 
